PubChem BioAssay (NCATS)
This list was built around the results that the source calls inconclusive (neither active nor inactive); the mix of calls is not that of the screen. For some of these results: A potency beside an inconclusive call is a rough fit, not a confirmed value. The source made the active and inactive calls. Calls follow the shape of the dose curve; as a rule, active = well fitted curve in the direction sought with a large enough effect; inconclusive = small, poorly fitted or top-dose-only effect, or another doubt; inactive = no such curve, though single readings can be large; an effect the other way counts as inactive or inconclusive.

Tests used:
[1] = Quantitative High-Throughput drug screen in 47 multiple myeloma cell lines against the NCATS MIPE library collection: FR4_PLB cell viability assay (AID 1918924; also: nearly all actives have a fitted effect of over 35% in size); settings: FR4_PLB myeloma cells viability, CellTiter-Glo ATP, 48 h; series mostly up to 45.8 µM
How it was run: (§1)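 We plated 500 myeloma cells per well, pinned in MIPE 4.0 compounds, and incubated for 48 hours at 37C. ATP was then quantified with CellTiter-Glo, with DMSO and media-only wells defining 100% and 0%.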

[2] = Quantitative High-Throughput drug screen in 47 multiple myeloma cell lines against the NCATS MIPE library collection: AMO1_DSMZ cell viability assay (AID 1918927; also: nearly all actives have a fitted effect of over 30% in size); settings: AMO1 myeloma cells viability, CellTiter-Glo ATP luminescence, 48 h; series mostly up to 45.8 µM
How it was run: (§2)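 qHTS of the MIPE 4.0 collection: 500 myeloma cells/well, 48 h drug exposure at 37C in 5% CO2, then CellTiter-Glo for 5 min at room temperature before luminescence reading.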

[3] = Quantitative High-Throughput drug screen in 47 multiple myeloma cell lines against the NCATS MIPE library collection: ARP1_JJKsccF8 cell viability assay (AID 1918928; also: nearly all actives have a fitted effect of over 40% in size); settings: ARP1 myeloma cells viability, CellTiter-Glo ATP, 48 h; series mostly up to 45.8 µM
How it was run: (§3)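 Each line was plated at 500 cells/well and treated 48 h with library drugs. Viability came from CellTiter-Glo luminescence relative to DMSO and cell-free medium controls.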

[4] = Quantitative High-Throughput drug screen in 47 multiple myeloma cell lines against the NCATS MIPE library collection: ARD_JJKsccE7 cell viability assay (AID 1918929); settings: ARD myeloma cell line viability, CellTiter-Glo, 48 h; viability: at 45.8 µM (top of the series)
How it was run: as §2

[5] = Quantitative High-Throughput drug screen in 47 multiple myeloma cell lines against the NCATS MIPE library collection: Karpas620_DSMZ cell viability assay (AID 1918959); settings: Karpas620 myeloma viability, CellTiter-Glo ATP luminescence, 48 h; viability (% of DMSO): at 45.8 µM (top of the series); also: nearly all actives have a fitted effect of over 30% in size
How it was run: as §1

[6] = Quantitative High-Throughput drug screen in 47 multiple myeloma cell lines against the NCATS MIPE library collection: KMM1_JCRB cell viability assay (AID 1918960); settings: KMM1 myeloma viability, CellTiter-Glo ATP luminescence, 48 h; viability (% of DMSO): at 45.8 µM (top of the series); also: nearly all actives have a fitted effect of over 30% in size;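 as to viability (% of DMSO): 100% = DMSO-treated cells and 0% = medium-only wells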
How it was run: as §3

[7] = Quantitative High-Throughput drug screen in 47 multiple myeloma cell lines against the NCATS MIPE library collection: KHM11_PLB cell viability assay (AID 1918962); settings: KHM11 myeloma cell viability, CellTiter-Glo ATP luminescence, 48 h; viability, % of DMSO control: at 45.8 µM (top of the series); also: nearly all actives have a fitted effect of over 35% in size
How it was run: as §1

[8] = Quantitative High-Throughput drug screen in 47 multiple myeloma cell lines against the NCATS MIPE library collection: JIM1_ECACC cell viability assay (AID 1918964); settings: JIM1 myeloma viability, CellTiter-Glo ATP luminescence, 48 h; viability (% of DMSO): at 45.8 µM (top of the series)
How it was run: as §2

[9] = Quantitative High-Throughput drug screen in 47 multiple myeloma cell lines against the NCATS MIPE library collection: JJN3_DSMZ cell viability assay (AID 1918966; also: nearly all actives have a fitted effect of over 50% in size); settings: JJN3 myeloma cells viability, CellTiter-Glo ATP, 48 h; viability, % of DMSO: at 45.8 µM (top of the series)
How it was run: as §2

[10] = Quantitative High-Throughput drug screen in 47 multiple myeloma cell lines against the NCATS MIPE library collection: H1112_PLB cell viability assay (AID 1918967; also: nearly all actives have a fitted effect of over 30% in size); settings: H1112 myeloma cells viability, ATP luminescence, 48 h; series mostly up to 45.8 µM
How it was run: as §2

[11] = Quantitative High-Throughput drug screen in 47 multiple myeloma cell lines against the NCATS MIPE library collection: KMS27_JCRB cell viability assay (AID 1918970); settings: KMS27 myeloma cells, CellTiter-Glo ATP viability, 48 h; viability (% of DMSO): at 45.8 µM (top of the series); also: nearly all actives have a fitted effect of over 30% in size
How it was run: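 Each line is seeded at 500 cells per well and treated with library compounds for 48 hours under 37 °C, 5% CO2. CellTiter-Glo is then added for 5 min at room temperature before median relative luminescence is recorded.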

[12] = Quantitative High-Throughput drug screen in 47 multiple myeloma cell lines against the NCATS MIPE library collection: Karpas417_ECACC cell viability assay (AID 1918961); settings: Karpas417 myeloma viability, CellTiter-Glo ATP luminescence, 48 h; viability (% of DMSO): at 45.8 µM (top of the series)
How it was run: (§4)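 Viability readout: CellTiter-Glo luminescence following 5 min room-temperature incubation with reagent. Prior exposure: 48 h, 37C, humidified 5% CO2, 500 cells per well.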

[13] = Quantitative High-Throughput drug screen in 47 multiple myeloma cell lines against the NCATS MIPE library collection: INA6_PLB cell viability assay (AID 1918965; also: nearly all actives have a fitted effect of over 55% in size); settings: INA6 myeloma viability, CellTiter-Glo ATP luminescence, 48 h; viability (% of control): at 45.8 µM (top of the series)
How it was run: as §4

[14] = Quantitative High-Throughput drug screen in 47 multiple myeloma cell lines against the NCATS MIPE library collection: Karpas25_ECACC cell viability assay (AID 1918968; also: nearly all actives have a fitted effect of over 35% in size); settings: Karpas25 myeloma viability, CellTiter-Glo ATP, 48 h; viability (% of control): at 45.8 µM (top of the series)
How it was run: as §2

[15] = Quantitative High-Throughput drug screen in 47 multiple myeloma cell lines against the NCATS MIPE library collection: EJM_DSMZ cell viability assay (AID 1918926; also: nearly all actives have a fitted effect of over 30% in size); settings: EJM myeloma cell viability, CellTiter-Glo ATP, 48 h; series mostly up to 45.8 µM
How it was run: as §2

[16] = Quantitative High-Throughput drug screen in 47 multiple myeloma cell lines against the NCATS MIPE library collection: JIM3_ECACC cell viability assay (AID 1918963; also: nearly all actives have a fitted effect of over 35% in size); settings: JIM3 myeloma viability, CellTiter-Glo ATP, 48 h; series mostly up to 45.8 µM
How it was run: as §1
Potency is read from the fitted curve at half-maximal effect.

COc1cccc(-c2cc(=O)c3ccccc3o2)c1N
active: Potency [2] 16.6 µM | Potency [7] 5.26 µM
inactive: Potency [4] | Potency [5] | Potency [6] | Potency [11]
inconclusive: Potency [1] 2.96 µM [cytotoxic, full curve, poor fit] | Potency [3] 37.2 µM [cytotoxic, single point] | Potency [8] 11.8 µM [rising, single point] | Potency [9] 4.18 µM [cytotoxic, partial curve, poor fit] | Potency [10] 4.69 µM [cytotoxic, full curve, poor fit]

O=C(O)c1cc(=O)c2c(OCC(O)COc3cccc4oc(C(=O)O)cc(=O)c34)cccc2o1
inactive: Potency [3] | Potency [10] | Potency [14]
inconclusive: Potency [1] 0.0118 µM [rising, full curve, poor fit] | Potency [5] 7.43 µM [rising, partial curve, poor fit] | Potency [12] 11.8 µM [rising, single point] | Potency [7] 0.0019 µM [rising, full curve, poor fit] | Potency [8] 0.469 µM [rising, full curve, poor fit] | Potency [13] 7.43 µM [cytotoxic, single point] | Potency [9] 0.0105 µM [rising, full curve, poor fit] | Potency [11] 0.0235 µM [rising, full curve, poor fit]

CC[C@@]1(O)C[C@H](O[C@H]2C[C@H](N(C)C)[C@H](O[C@H]3C[C@H](O)[C@H](O[C@H]4CCC(=O)[C@H](C)O4)[C@H](C)O3)[C@H](C)O2)c2c(cc3c(c2O)C(=O)c2c(O)cccc2C3=O)[C@@H]1C(=O)OC
inconclusive: Potency [5] 37.2 µM [cytotoxic, single point] | Potency [12] 14.8 µM [cytotoxic, partial curve, poor fit] | Potency [8] 2.96 µM [cytotoxic, full curve, poor fit]
active: Potency [1] 0.332 µM | Potency [7] 0.132 µM

CN(C)c1ccc2cc(C(=O)N[C@@H](CCCN=C(N)CCl)C(=O)NCc3ccccc3)ccc2c1
active: Potency [1] 11.8 µM | Potency [5] 5.9 µM | Potency [7] 16.6 µM | Potency [8] 3.72 µM
inconclusive: Potency [12] 37.2 µM [rising, partial curve, poor fit]

Nc1ccccc1NC(=O)c1ccc(CNC(=O)OCc2cccnc2)cc1
active: Potency [1] 2.96 µM | Potency [15] 3.72 µM | Potency [16] 2.96 µM

CON=C(C(=O)N[C@@H]1C(=O)N2C(C(=O)OCOC(=O)C(C)(C)C)=C(C=Cc3scnc3C)CS[C@H]12)c1csc(N)n1
inconclusive: Potency [4] 105 µM [cytotoxic, partial curve, poor fit] | Potency [6] 37.2 µM [cytotoxic, single point] | Potency [8] 26.4 µM [cytotoxic, single point] | Potency [9] 0.0012 µM [rising, full curve, poor fit] | Potency [14] 20.9 µM [cytotoxic, partial curve] | Potency [11] 23.5 µM [cytotoxic, partial curve, poor fit]
inactive: Potency [1] | Potency [3]
active: Potency [5] 16.6 µM | Potency [12] 20.9 µM | Potency [7] 18.7 µM

CCCCCN=C(N)NN=Cc1c[nH]c2ccc(OC)cc12
active: Potency [1] 2.35 µM | Potency [2] 1.32 µM | Potency [16] 5.26 µM | Potency [8] 1.48 µM
inconclusive: Potency [3] 3.72 µM [cytotoxic, full curve] | Potency [5] 2.09 µM [cytotoxic, full curve] | Potency [12] 3.32 µM [cytotoxic, partial curve, poor fit] | Potency [7] 1.32 µM [cytotoxic, full curve, poor fit] | Potency [9] 18.7 µM [cytotoxic, partial curve, poor fit] | Potency [10] 9.35 µM [cytotoxic, partial curve] | Potency [14] 8.33 µM [cytotoxic, full curve] | Potency [11] 1.05 µM [cytotoxic, full curve]

CC(C)Oc1ccc2c(=O)c(-c3ccccc3)coc2c1
inactive: Potency [4] | Potency [7] | Potency [8] | Potency [10]
inconclusive: Potency [1] 14.8 µM [cytotoxic, partial curve, poor fit] | Potency [3] 18.7 µM [cytotoxic, partial curve, poor fit] | Potency [5] 0.0012 µM [cytotoxic, full curve, poor fit] | Potency [6] 0.0526 µM [rising, full curve, poor fit] | Potency [12] 0.0148 µM [cytotoxic, full curve, poor fit] | Potency [13] 0.0093 µM [rising, full curve, poor fit] | Potency [9] 0.833 µM [cytotoxic, partial curve, poor fit] | Potency [14] 3.32 µM [cytotoxic, partial curve, poor fit]

CCCCC(CC)COC(=O)C(C#N)=C(c1ccccc1)c1ccccc1 (stereo not drawn)
inactive: Potency [1] | Potency [5] | Potency [7] | Potency [16] | Potency [8] | Potency [9] | Potency [10]
inconclusive: Potency [4] 0.0526 µM [cytotoxic, full curve, poor fit] | Potency [11] 0.0017 µM [cytotoxic, full curve, poor fit]
active: viability (% of DMSO) [12] 94.7%

CC[N+](CC)(CC)CCOc1cccc(OCC[N+](CC)(CC)CC)c1OCC[N+](CC)(CC)CC
inactive: Potency [4] | Potency [5] | Potency [16] | Potency [8] | Potency [9] | Potency [10] | Potency [14]
inconclusive: Potency [1] 0.0074 µM [cytotoxic, full curve, poor fit] | Potency [3] 2.09 µM [cytotoxic, partial curve, poor fit] | Potency [7] 1.48 µM [cytotoxic, full curve, poor fit] | Potency [13] 0.332 µM [cytotoxic, full curve, poor fit] | Potency [11] 0.935 µM [cytotoxic, partial curve, poor fit]

Reprinted at random: 2 compounds from above.
CC[N+](CC)(CC)CCOc1cccc(OCC[N+](CC)(CC)CC)c1OCC[N+](CC)(CC)CC
inactive: Potency [4] | Potency [5] | Potency [16] | Potency [8] | Potency [9] | Potency [10] | Potency [14]
inconclusive: Potency [1] 0.0074 µM [cytotoxic, full curve, poor fit] | Potency [3] 2.09 µM [cytotoxic, partial curve, poor fit] | Potency [7] 1.48 µM [cytotoxic, full curve, poor fit] | Potency [13] 0.332 µM [cytotoxic, full curve, poor fit] | Potency [11] 0.935 µM [cytotoxic, partial curve, poor fit]

CC(C)Oc1ccc2c(=O)c(-c3ccccc3)coc2c1
inactive: Potency [4] | Potency [7] | Potency [8] | Potency [10]
inconclusive: Potency [1] 14.8 µM [cytotoxic, partial curve, poor fit] | Potency [3] 18.7 µM [cytotoxic, partial curve, poor fit] | Potency [5] 0.0012 µM [cytotoxic, full curve, poor fit] | Potency [6] 0.0526 µM [rising, full curve, poor fit] | Potency [12] 0.0148 µM [cytotoxic, full curve, poor fit] | Potency [13] 0.0093 µM [rising, full curve, poor fit] | Potency [9] 0.833 µM [cytotoxic, partial curve, poor fit] | Potency [14] 3.32 µM [cytotoxic, partial curve, poor fit]

Later entries:

Cc1cn([C@@H]2O[C@H](CO)[C@@H](O)[C@H]2F)c(=O)[nH]c1=O
inconclusive: Potency [1] 0.003 µM [rising, full curve, poor fit] | Potency [3] 0.001 µM | Potency [6] 29.6 µM [cytotoxic, partial curve, poor fit] | Potency [12] 0.0074 µM [cytotoxic, full curve, poor fit] | Potency [7] 0.0093 µM [rising, full curve] | Potency [8] 37.2 µM [cytotoxic, single point] | Potency [9] 0.0013 µM [rising, full curve, poor fit] | Potency [11] 20.9 µM [cytotoxic, single point]
inactive: Potency [2] | Potency [13] | Potency [14]

Cc1cc(C=c2sc3nc4ccccc4n3c2=O)c(C)n1-c1ccccc1
inconclusive: Potency [1] 9.35 µM [cytotoxic, full curve, poor fit] | Potency [13] 0.0053 µM [cytotoxic, full curve, poor fit]
active: Potency [7] 0.833 µM
inactive: Potency [2] | Potency [6] | Potency [16] | Potency [8] | Potency [14] | Potency [11]

N[C@@H](Cc1c[nH]c2ccc(O)cc12)C(=O)O
inconclusive: Potency [1] 0.105 µM [cytotoxic, full curve, poor fit] | Potency [2] 0.372 µM [cytotoxic, full curve, poor fit] | Potency [3] 2.09 µM [cytotoxic, full curve, poor fit] | Potency [4] 0.0118 µM [cytotoxic, full curve, poor fit] | Potency [12] 11.8 µM [rising, single point] | Potency [16] 4.18 µM [cytotoxic, partial curve, poor fit] | Potency [9] 3.72 µM [cytotoxic, full curve, poor fit] | Potency [14] 0.296 µM [cytotoxic, partial curve, poor fit]
inactive: Potency [7] | Potency [8] | Potency [13]

C[C@H](NC(=O)[C@@H](O)c1cc(F)cc(F)c1)C(=O)N[C@@H]1C(=O)N(C)c2ccccc2-c2ccccc21
inactive: Potency [1] | Potency [2] | Potency [5] | Potency [6] | Potency [7] | Potency [9]
inconclusive: Potency [12] 3.72 µM [rising, partial curve, poor fit] | Potency [16] 0.118 µM [cytotoxic, partial curve, poor fit] | Potency [8] 0.0935 µM [cytotoxic, full curve, poor fit] | Potency [11] 0.662 µM [cytotoxic, full curve, poor fit]
